From paper PMC9789059
No constants are given. Whether binding was seen depends on the method and setting. Binding seen in cells or lysates may run through a third protein. Some binding calls cover weakened binding; strength is not graded here.

Sequences of proteins named here, by UniProt entry; tags and fusion partners are left off. A change or cut given only in a name is not applied to a line headed by its entry. A line that says so, or that is headed by a name, gives the form on record, which may keep a tag or linker. Residues count along the entry.
UniProt P14618: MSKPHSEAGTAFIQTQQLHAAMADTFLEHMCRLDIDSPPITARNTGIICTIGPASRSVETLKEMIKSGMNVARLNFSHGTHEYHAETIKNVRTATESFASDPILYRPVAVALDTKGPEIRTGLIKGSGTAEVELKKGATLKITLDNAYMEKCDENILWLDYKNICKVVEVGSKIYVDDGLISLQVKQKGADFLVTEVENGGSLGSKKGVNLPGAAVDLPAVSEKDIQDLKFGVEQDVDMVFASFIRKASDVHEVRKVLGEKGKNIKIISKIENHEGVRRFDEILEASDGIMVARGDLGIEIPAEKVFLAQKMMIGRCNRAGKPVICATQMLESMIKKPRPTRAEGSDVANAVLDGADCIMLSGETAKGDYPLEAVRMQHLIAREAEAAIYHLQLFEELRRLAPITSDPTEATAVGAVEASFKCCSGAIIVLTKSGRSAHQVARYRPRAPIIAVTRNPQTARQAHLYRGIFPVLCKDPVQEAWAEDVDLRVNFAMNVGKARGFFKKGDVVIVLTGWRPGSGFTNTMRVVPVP
GFP tagged PKM2 exon 10 (exon 10 only): residues 436-497 of P14618
GFP tagged Pkm2-Δexon 10 (exon 10 deletion) (P14618, form named): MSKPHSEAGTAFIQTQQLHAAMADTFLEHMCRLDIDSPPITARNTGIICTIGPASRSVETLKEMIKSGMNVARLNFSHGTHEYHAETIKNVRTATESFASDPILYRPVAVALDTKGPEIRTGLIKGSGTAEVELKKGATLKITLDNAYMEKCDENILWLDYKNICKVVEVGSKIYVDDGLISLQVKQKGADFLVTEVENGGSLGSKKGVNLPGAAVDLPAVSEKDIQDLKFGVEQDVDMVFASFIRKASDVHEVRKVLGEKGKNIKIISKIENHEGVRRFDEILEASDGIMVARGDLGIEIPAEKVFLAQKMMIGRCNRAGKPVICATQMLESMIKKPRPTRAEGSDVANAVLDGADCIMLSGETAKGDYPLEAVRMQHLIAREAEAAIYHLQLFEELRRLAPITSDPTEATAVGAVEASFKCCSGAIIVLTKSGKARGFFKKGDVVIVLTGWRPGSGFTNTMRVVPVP
Pyruvate kinase M2 (PKM2), endogenous in neonatal rat cardiomyocytes (rat (endogenous in NRCMs)) (P11980, form named): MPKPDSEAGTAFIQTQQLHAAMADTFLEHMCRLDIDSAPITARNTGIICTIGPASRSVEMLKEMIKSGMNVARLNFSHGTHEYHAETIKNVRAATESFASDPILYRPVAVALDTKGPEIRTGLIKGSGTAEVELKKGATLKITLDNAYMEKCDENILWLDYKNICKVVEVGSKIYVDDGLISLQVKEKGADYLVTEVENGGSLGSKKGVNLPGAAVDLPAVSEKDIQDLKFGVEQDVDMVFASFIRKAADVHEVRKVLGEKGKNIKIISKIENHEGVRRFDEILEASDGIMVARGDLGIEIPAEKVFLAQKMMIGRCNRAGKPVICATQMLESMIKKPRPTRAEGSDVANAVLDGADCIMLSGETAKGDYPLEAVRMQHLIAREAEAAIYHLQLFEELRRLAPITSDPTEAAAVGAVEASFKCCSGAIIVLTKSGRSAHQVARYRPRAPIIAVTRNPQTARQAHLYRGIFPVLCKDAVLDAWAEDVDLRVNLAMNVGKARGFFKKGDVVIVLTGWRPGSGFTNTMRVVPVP
Flag-SERCA2a (P16615-2, form named): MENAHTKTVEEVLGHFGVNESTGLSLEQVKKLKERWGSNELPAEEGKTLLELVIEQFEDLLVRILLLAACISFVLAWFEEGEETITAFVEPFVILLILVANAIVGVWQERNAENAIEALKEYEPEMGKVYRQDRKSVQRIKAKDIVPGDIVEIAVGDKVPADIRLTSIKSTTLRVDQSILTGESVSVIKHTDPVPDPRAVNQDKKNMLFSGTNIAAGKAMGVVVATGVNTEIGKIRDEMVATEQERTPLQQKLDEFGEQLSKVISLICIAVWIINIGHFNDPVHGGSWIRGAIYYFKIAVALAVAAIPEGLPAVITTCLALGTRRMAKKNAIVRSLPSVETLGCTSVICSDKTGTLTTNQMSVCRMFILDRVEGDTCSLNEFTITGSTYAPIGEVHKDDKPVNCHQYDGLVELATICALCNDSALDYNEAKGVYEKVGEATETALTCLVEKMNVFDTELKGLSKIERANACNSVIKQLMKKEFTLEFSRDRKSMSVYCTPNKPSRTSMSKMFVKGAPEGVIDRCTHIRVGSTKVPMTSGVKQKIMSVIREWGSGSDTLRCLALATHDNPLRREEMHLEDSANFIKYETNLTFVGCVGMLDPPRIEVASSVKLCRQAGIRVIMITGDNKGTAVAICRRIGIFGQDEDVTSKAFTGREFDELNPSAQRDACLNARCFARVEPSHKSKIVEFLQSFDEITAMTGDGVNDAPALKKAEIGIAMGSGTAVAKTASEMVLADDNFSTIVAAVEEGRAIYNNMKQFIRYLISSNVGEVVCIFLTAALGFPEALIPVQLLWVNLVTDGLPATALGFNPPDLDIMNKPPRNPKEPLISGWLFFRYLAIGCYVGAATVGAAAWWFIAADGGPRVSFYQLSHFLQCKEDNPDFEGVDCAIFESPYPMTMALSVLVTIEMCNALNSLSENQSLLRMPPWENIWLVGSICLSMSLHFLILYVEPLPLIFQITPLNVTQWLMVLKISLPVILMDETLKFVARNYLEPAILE
Sarcoplasmic/endoplasmic reticulum calcium ATPase 2a (SERCA2a), endogenous in neonatal rat cardiomyocytes (P11507-2, form named): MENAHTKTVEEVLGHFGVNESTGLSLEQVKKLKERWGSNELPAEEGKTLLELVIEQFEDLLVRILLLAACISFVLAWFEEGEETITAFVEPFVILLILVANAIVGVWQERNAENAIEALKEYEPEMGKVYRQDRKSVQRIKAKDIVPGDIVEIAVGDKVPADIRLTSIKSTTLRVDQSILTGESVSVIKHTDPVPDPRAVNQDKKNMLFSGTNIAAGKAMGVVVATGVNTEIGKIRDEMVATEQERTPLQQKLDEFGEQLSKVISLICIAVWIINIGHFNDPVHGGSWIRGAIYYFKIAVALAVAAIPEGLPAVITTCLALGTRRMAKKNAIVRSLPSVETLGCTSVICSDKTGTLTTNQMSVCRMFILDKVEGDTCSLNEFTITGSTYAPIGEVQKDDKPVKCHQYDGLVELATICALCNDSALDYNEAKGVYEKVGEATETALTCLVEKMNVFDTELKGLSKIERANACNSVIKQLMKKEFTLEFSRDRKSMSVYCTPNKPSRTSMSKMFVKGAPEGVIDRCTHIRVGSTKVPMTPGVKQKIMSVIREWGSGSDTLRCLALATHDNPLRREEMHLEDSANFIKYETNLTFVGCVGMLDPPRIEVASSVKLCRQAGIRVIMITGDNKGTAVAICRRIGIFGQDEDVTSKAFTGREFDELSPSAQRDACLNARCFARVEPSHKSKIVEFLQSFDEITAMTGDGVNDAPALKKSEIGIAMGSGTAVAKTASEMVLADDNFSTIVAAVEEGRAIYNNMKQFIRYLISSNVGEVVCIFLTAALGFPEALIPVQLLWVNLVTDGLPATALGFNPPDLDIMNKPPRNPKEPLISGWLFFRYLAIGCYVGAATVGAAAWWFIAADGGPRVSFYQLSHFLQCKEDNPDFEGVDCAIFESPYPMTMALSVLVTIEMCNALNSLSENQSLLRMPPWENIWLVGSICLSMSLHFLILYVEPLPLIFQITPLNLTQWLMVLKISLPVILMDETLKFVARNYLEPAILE

Experiments:
[1] = biological target: GFP tagged Pkm2-Δexon 10 (exon 10 deletion) (human) (UniProt P14618); assay: co-IP; HEK-293T co-transfected with Flag-SERCA2a and GFP-tagged PKM2 full-length or truncated forms, 48 h after transfection; immunoprecipitation by anti-GFP antibody, Western blot
[2] = biological target: GFP tagged PKM2 exon 10 (exon 10 only) (human) (UniProt P14618); assay: as above
[3] = biological target: GFP tagged Pkm2 full-length (homo-GFP-PKM2) (human) (UniProt P14618); assay: as above
[4] = biological target: Pyruvate kinase M2 (PKM2), endogenous in neonatal rat cardiomyocytes (rat (endogenous in NRCMs)) (UniProt P11980); assay: co-IP; endogenous proteins; NRCM RIPA lysate incubated with anti-PKM2 antibody or IgG overnight at 4 °C, captured on protein A/G agarose; Western blot for SERCA2a

Row | binding [1] | binding [2] | binding [3] | binding [4] | Substance
1 | binds | no binding | binds | – | Flag-SERCA2a (from UniProt P16615-2 1-997)
2 | – | – | – | binds | Sarcoplasmic/endoplasmic reticulum calcium ATPase 2a (SERCA2a), endogenous in neonatal rat cardiomyocytes (from UniProt P11507-2 1-997)
